PubChem BioAssay AID686937 | Drosophila RNAi Screening Center | 2013
In all, the deposit lists about 23,000 reagents; below is a random part of those that have a named target and a result. 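Reduced-secretion tags in replicate 1 do not always agree with the z-scores; no criterion for assigning the tags was given.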 A plus sign joins genes that one reagent is predicted to hit. The record does not give: the amount of reagent.

- Screen: 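Genes in the fly needed for secretion of protein constitutively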 (primary screen)
- Cells: Drosophila S2 cells expressing secreted horseradish peroxidase
- Reagents: long dsRNA against Drosophila genes
- Time to read-out: about 5.5 days (5 days dsRNA, then 12 h reporter induction)
- Challenge: reporter expression induced after 5 days of dsRNA, read 12 h later; inducer not stated
- Measurement: 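Chemiluminescent measurement of peroxidase in the medium 12 h after reporter induction, following 5 days of dsRNA, given as a z-score per plate; higher means more secretion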
- Scale: z-score: higher = more reporter secreted into medium

gene knocked down	DRSC id	z-score, replicate 1	z-score, replicate 2	z-score, replicate 3	z-score, replicate 4	phenotype, replicate 1
Nepl21 (Neprilysin-like 21)	DRSC14133	0.5	0.53			
CG15143	DRSC02444	0.29	0.1			
CG2129	DRSC18209	0.67	0.41			
CG14434	DRSC17927	0.27	0.44			
CG8773	DRSC16444	0.03	0.38			
Gpdh3 (Glycerol-3-phosphate dehydrogenase 3)	DRSC15325	0.2	0.38			
Rrp42	DRSC07161	-0.7	-0.49			
CG31259	DRSC14366	0.08	0.32			
CG8531	DRSC07209	0.32	0.45			
AhcyL2 (Adenosylhomocysteinase like 2)	DRSC14107	-0.09	-0.03			
Syx13 (Syntaxin 13)	DRSC09836	0.31	0.4			
CG15880	DRSC00474	0.17	0.15			
eIF6 (eukaryotic translation initiation factor 6)	DRSC04674	0.16	0.03			
CG34176	DRSC00435	0.1	0.16			
CG30379	DRSC05070	-0.38				
rg (rugose)	DRSC17377	0.4	0.6			
rg (rugose)	DRSC17726	0.72	0.52			
rg (rugose)	DRSC18049	0.28	0.4			
RpL32 (Ribosomal protein L32)	DRSC16835	-3.53	-4.76	0.47	0.11	reduced secretion
CG42361	DRSC04391	0.21	0.09			
Glut1 (Glucose transporter 1)	DRSC07927	0.5	0.35			
Glut1 (Glucose transporter 1)	DRSC08378	0.43	0.36			
Glut1 (Glucose transporter 1)	DRSC08662	0.36	0.15			
CG14837	DRSC10207	0.31	0.15			
P5cr-2 (Pyrroline-5-carboxylate reductase-like 2)	DRSC15889	0.39	0.64			
ewg (erect wing)	DRSC18773	0.37	0.38	-0.29	0.08	
lmgA + lmgB	DRSC03566	0.3	0.24			
Nep5 (Neprilysin 5)	DRSC16004	0.3	0.31			
CG33489	DRSC10588	0.33	0.24			
sti (sticky)	DRSC09739	0.22	0.25			
sti (sticky)	DRSC09740	-0.41	0.01			
Atx2 (Ataxin-2)	DRSC15727	-4.74	-3.96			reduced secretion
mre11 (meiotic recombination 11)	DRSC03570	0.5	0.39	0.31	0.26	
mre11 (meiotic recombination 11)	DRSC22628	0.1	0.08			
CG40378 (retired record)	DRSC20958	0.15	0.42			
CG40378 (retired record)	DRSC22174	-0.69	-0.08			
Ugt37C1 (UDP-glycosyltransferase family 37 member C1)	DRSC07416	-5.42	0.14			reduced secretion
Mtl (Mig-2-like)	DRSC16751	-0.04	0.31			
CG15864	DRSC15122	0.2	0.06			
slmo + CG34179	DRSC03143	-0.61	-1.13			
CG43439 + CG32388	DRSC08861	0.35	0.17			
CG10680	DRSC02093	0.32	0.22			
TwdlJ (TweedleJ)	DRSC15812	0.55	0.64			
Polr3B (RNA polymerase III subunit B)	DRSC07536	-0.2	-0.5			
CG13544	DRSC04186	0.07	0.25			
beat-Ib (beaten path Ib)	DRSC03490	0.45	0.25			
CG32833	DRSC04596	0.2	0.36			
l(2)34Fd (lethal (2) 34Fd)	DRSC01911	0.09	0.08			
CG6287	DRSC02947	0.14	0.16			
CG3746	DRSC04412	0.05	0.5			
Tab2 (TAK1-associated binding protein 2)	DRSC07481	-0.03	0.34			
PIG-T (Phosphatidylinositol glycan anchor biosynthesis class T)	DRSC17774	0.18	0.16			
kat80 (katanin 80)	DRSC20344	0.38	0.11			
kat80 (katanin 80)	DRSC20345	0.3	0.42			
GstE1 (Glutathione S transferase E1)	DRSC07437	0.21	0.28			
Septin4 (Septin 4)	DRSC20205	0.23	0.21			
CG15425	DRSC00440	0.49	0.33			
Gbp3 (Growth-blocking peptide 3)	DRSC15206	0.28	0.35			
ftz (fushi tarazu)	DRSC12626	0.27	0.83			
CG8584	DRSC07217	0.21	0.34			
CG33120	DRSC02073	0.23	0.32			
CG11200	DRSC06060	0.18	0.15			
CG43345 + CG43346	DRSC03164	0.13	0.21			
CG42748	DRSC03712	-0.06	0.14			
CG42748	DRSC03713	0.44	0.33			
CG42748	DRSC03734	-0.07	0.06			
WRNexo (WRN exonuclease)	DRSC16278	0.09	0.19			
CG11145	DRSC06049	0.35	0.47			
anchor	DRSC10861	0.34	0.41			
comt (comatose)	DRSC20319	-4.48	-3.47			reduced secretion
CG3038	DRSC18618	0.21	0.12			
CrebB (Cyclic-AMP response element binding protein B)	DRSC20232	0.57	0.59			
CG33476	DRSC22888	-0.64	-0.17			
CG34327	DRSC19517	-0.23	-0.88			
CG34327	DRSC22380	0.69	1.02			
CG42795	DRSC12772	0.45	0.52			
CG42795	DRSC15533	0.29	-0.25			
Top3beta (Topoisomerase 3beta)	DRSC18724	0.63	0.47			
Pex5 (Peroxin 5)	DRSC18552	0.37	0.38			
CG15483	DRSC02493	0.09	0.27			
CG5245	DRSC15750	0.15	0.14			
Ir62a (Ionotropic receptor 62a)	DRSC08250	0.34	0.36			

13 entries from above, sorted by “z-score, replicate 1”, ascending.
gene knocked down	DRSC id	z-score, replicate 1	z-score, replicate 2	z-score, replicate 3	z-score, replicate 4	phenotype, replicate 1
comt (comatose)	DRSC20319	-4.48	-3.47			reduced secretion
CG33476	DRSC22888	-0.64	-0.17			
CG34327	DRSC19517	-0.23	-0.88			
CG15483	DRSC02493	0.09	0.27			
CG5245	DRSC15750	0.15	0.14			
CG3038	DRSC18618	0.21	0.12			
CG42795	DRSC15533	0.29	-0.25			
anchor	DRSC10861	0.34	0.41			
Pex5 (Peroxin 5)	DRSC18552	0.37	0.38			
CG42795	DRSC12772	0.45	0.52			
CrebB (Cyclic-AMP response element binding protein B)	DRSC20232	0.57	0.59			
Top3beta (Topoisomerase 3beta)	DRSC18724	0.63	0.47			
CG34327	DRSC22380	0.69	1.02			
